Measurements published in PubChem BioAssay AID1917 (Vanderbilt High Throughput Screening Facility, 2009).
Screen size: about 3,000 compounds; about 1,600 (53%) were called active. The set was probably picked from earlier hits. The shares of active, inactive and inconclusive entries below differ from those in the screen.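 The calls were made as follows: active = Flux at 10 µM at least 3 SD below or above vehicle control mean in one or both replicates; inconclusive = no clear call, values can overlap the other calls; inactive = the rest.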

By UniProt entry, the sequences of proteins in these tests, tags left out. Where a name states a change or a piece, a line headed by the entry shows the natural chain unless it says otherwise.
UniProt P48048: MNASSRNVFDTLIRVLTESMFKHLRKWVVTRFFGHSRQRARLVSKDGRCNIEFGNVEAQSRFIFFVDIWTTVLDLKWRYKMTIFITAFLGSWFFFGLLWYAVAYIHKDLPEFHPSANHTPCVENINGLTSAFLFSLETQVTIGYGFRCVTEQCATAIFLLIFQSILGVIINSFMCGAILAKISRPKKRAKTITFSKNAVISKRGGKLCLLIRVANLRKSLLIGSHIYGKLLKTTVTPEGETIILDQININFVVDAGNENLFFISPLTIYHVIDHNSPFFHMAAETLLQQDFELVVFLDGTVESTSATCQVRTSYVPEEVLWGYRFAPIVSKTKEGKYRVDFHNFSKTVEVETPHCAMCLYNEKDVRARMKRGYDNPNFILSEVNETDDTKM

These compounds were tested against ATP-sensitive inward rectifier potassium channel 1 (Homo sapiens) (UniProt P48048) (assay: retested modulators of human Kir1.1 channel – cell-based, thallium flux, duplicate, resupplied hits, confirmation (AID 1917)). Settings: ROMK thallium flux, fluorescence ratio; at 10 µM; stronger effect = lower value.

| Compound | normalized thallium flux (F/F0 slope) |
| --- | --- |
| N#C/C(C(N)=O)=C1/CCc2ccccc2N1 | inactive: 0.0882 |
| O=C(/C=C\c1ccco1)Oc1cccc2cccnc12 | inactive: 0.0857 |
| CC1=NOC(=O)/C1=C/c1ccc(N(C)C)cc1 | inconclusive: 0.0645 |
| CCCCCc1cc(=O)oc2c(C(CCN3CCCC3)c3ccc(N(C)C)cc3)c(OC)cc(OC)c12 (stereo not given) | inconclusive: 0.0662 |
| COc1ccccc1CNCC(O)Cn1c2ccccc2c2ccccc21 (stereo not given) | active: 0.0612 |
| COc1ccc(C(C[N+](=O)[O-])C2(c3ccc(OC)c(OC)c3)C(=O)c3ccccc3C2=O)cc1 (stereo not given) | inconclusive: 0.064 |
| CCOc1ccc(NC(=O)N[C@@H](CCSC)C(=O)OC)cc1 | inconclusive: 0.069 |
| COc1ccc(-n2c(-c3cnccn3)n[nH]c2=S)cc1 | inactive: 0.0862 |
| CCC(c1nnnn1C(C)(C)CC)N(CCN1CCOCC1)Cc1cc2cc(C)ccc2[nH]c1=O (stereo not given) | inconclusive: 0.0714 |
| CN(NC(=O)c1ccccc1F)c1nc(C(F)(F)F)nc2ccccc12 | inactive: 0.0894 |
| Cc1ccc2[nH]c(=O)c(CN(Cc3ccccc3)C(=S)NCCCN(C)C)cc2c1 | inconclusive: 0.0727 |
| Oc1c(C=C2N=c3ccccc3=N2)sc(=S)n1C1CCCCC1 | inconclusive: 0.0696 |
| CCN(CC)c1ccc(C=Nc2ccc(N(C)C)cc2)c(O)c1 | inconclusive: 0.0708 |
| Cc1csc(SCC(=O)Nc2ccccc2[N+](=O)[O-])n1 | inconclusive: 0.0694 |
| CCN(CC)c1ccc(C=N/C(C#N)=C(\N)C#N)cc1 | inconclusive: 0.0684 |
| CCOC(=O)c1oc2nc3c(cc2c1N)COC(C)(C)C3 | inactive: 0.0779 |
| O=C(O)CCCN1C(=O)/C(=C/c2cn(-c3ccccc3)nc2-c2cccs2)SC1=S | inconclusive: 0.069 |
| Cn1c(C(=O)NCCN2CCc3ccccc3C2)cc2c(=O)n(C)c3ccccc3c21 | inconclusive: 0.0678 |
| O=C(CCl)N(c1ccc(Cl)cc1)c1c[nH]c2ccccc12 | active: 0.0557 |
| Oc1ccc2cc(Br)ccc2c1CN1CCCC1 | active: 0.0638 |
| Cc1sc2ncnc(NC3CCN(Cc4ccccc4)CC3)c2c1C | inconclusive: 0.0677 |
| CCn1nc(C(=O)OCc2cccc(S(=O)(=O)N(C)C)c2)c2ccccc2c1=O | inconclusive: 0.0675 |
| COc1ccc(Oc2ccccc2C=O)cc1 | inconclusive: 0.0952 |

For convenience, some entries already given.

| Compound | normalized thallium flux (F/F0 slope) |
| --- | --- |
| N#C/C(C(N)=O)=C1/CCc2ccccc2N1 | inactive: 0.0882 |
| O=C(/C=C\c1ccco1)Oc1cccc2cccnc12 | inactive: 0.0857 |
| CC1=NOC(=O)/C1=C/c1ccc(N(C)C)cc1 | inconclusive: 0.0645 |
| CCCCCc1cc(=O)oc2c(C(CCN3CCCC3)c3ccc(N(C)C)cc3)c(OC)cc(OC)c12 (stereo not given) | inconclusive: 0.0662 |
| COc1ccccc1CNCC(O)Cn1c2ccccc2c2ccccc21 (stereo not given) | active: 0.0612 |
| COc1ccc(C(C[N+](=O)[O-])C2(c3ccc(OC)c(OC)c3)C(=O)c3ccccc3C2=O)cc1 (stereo not given) | inconclusive: 0.064 |

(listing goes on)

| Compound | normalized thallium flux (F/F0 slope) |
| --- | --- |
| COc1ccc(Cc2nc(-c3ccccn3)no2)cc1OC | inactive: 0.0708 |
| Cn1nc(-c2ccc(Cl)cc2)c2cc(C(=O)NCCCN3CCCC3)sc21 | active: 0.059 |
| COc1ccc(C2=CC(c3ccc(C)cc3)n3nnnc3N2)cc1 (stereo not given) | inconclusive: 0.069 |
| CSc1nc2ccc(S(=O)(=O)NC3CCCCC3)cc2s1 | inconclusive: 0.0718 |
| Cc1ccc(S(=O)(=O)N2CCCN(S(=O)(=O)c3ccc4c(c3)OCCO4)CC2)cc1 | inconclusive: 0.0686 |
| O=C(Nc1ccc(Cl)cc1Cl)N1CCN(c2ncccn2)CC1 | inactive: 0.0741 |
| O=C(Nc1ccc(S(=O)(=O)Nc2ccc(F)cc2)cc1)c1ccc(CN2CCOCC2)cc1 | inconclusive: 0.0704 |
| COc1ccc(C(C)=O)cc1CN1C(=O)NC2(CCCCC2)C1=O | inactive: 0.0817 |
| CCCN(CCC)C(=O)c1cc2c(=O)[nH]c3ccc(C)cc3c2s1 | inactive: 0.0732 |
| COc1cc2ncnc(NCc3ccccc3C)c2cc1OC | inconclusive: 0.0677 |
| CC1C(=NO)C(C)C(c2ccc(N(C)C)cc2)NC1c1ccc(N(C)C)cc1 (stereo not given) | active: 0.0669 |
| CCOc1ccccc1C1C(C(=O)OC)=C(N)OC2=C1C(=O)CCC2 (stereo not given) | inactive: 0.0793 |
| Cc1cc(C)n2nc(/C(C#N)=C/c3ccccn3)c(C#N)c2n1 | active: 0.0437 |
| COc1cnc(-c2ccccn2)nc1Sc1ccc(C)cc1 | inconclusive: 0.0691 |
| O=C(CC1=NCCNC(c2ccccc2)C1)c1ccccc1O (stereo not given) | inconclusive: 0.0684 |
| Cc1ccc(S(=O)(=O)N2CCCCC2)cc1NC(=O)COC(=O)Cc1cccc(C(F)(F)F)c1 | active: 0.0633 |
| CC1CCCCN1CCCNC(=O)c1ccc2c(=O)n(CCc3ccccc3)c(=O)[nH]c2c1 (stereo not given) | inconclusive: 0.069 |
| Cn1c(-c2ccc3c(c2)OCO3)cnc1NCc1cccc(Cl)c1 | active: 0.0646 |
| c1ccc(CCNc2ncnc3ccccc23)cc1 | inactive: 0.0756 |
| COc1ccccc1/C=C/CN1CCC(CO)(Cc2ccccc2)CC1 | inconclusive: 0.0667 |
| O=C1/C(=C\c2ccc(O)c(O)c2)C(c2ccccc2)=NN1c1ccccc1 | inconclusive: 0.068 |
| O=C1CC(c2ccc(Cl)c(Cl)c2)CC(O)=C1C=NCCN1CCNCC1 (stereo not given) | active: 0.0572 |
| Cc1cc(Cl)ccc1OCc1cn2cccnc2n1 | inconclusive: 0.0961 |

| Compound | normalized thallium flux (F/F0 slope) |
| --- | --- |
| CCn1cc(C(=O)N2CCN(c3ccc(F)cc3)CC2)c2cc(OC)c(OC)cc2c1=O | inactive: 0.0782 |
| S=C(NCCc1ccccc1)N1CCN(C23CC4CC(CC(C4)C2)C3)CC1 | inconclusive: 0.0703 |
| S=c1[nH]nc(-c2cccnc2)n1/N=C/C(Cl)=C\c1ccccc1 | inconclusive: 0.0686 |
| COc1ccccc1-n1c(=S)[nH]c2c(sc(=S)n2-c2ccc(C)cc2C)c1=O | inactive: 0.0774 |
| COC(=O)Cn1cc(/C=C/[N+](=O)[O-])c2ccccc21 | active: 0.0436 |
| COCC(=O)O[C@]1(CCN(C)CCCc2nc3ccccc3[nH]2)CCc2cc(F)ccc2[C@@H]1C(C)C | active: 0.0606 |
| Brc1ccc(N=C/C=C/C=C/Nc2ccc(Br)cc2)cc1 | inconclusive: 0.0688 |
| CC1CCCC(C(=O)O)N1C(=O)CCS (stereo not given) | inconclusive: 0.0936 |
| O=S(=O)(Nc1nc2ccccc2nc1Nc1ccc2c(c1)OCCO2)c1cccs1 | inconclusive: 0.0668 |
| CCOC(=O)COn1c(=O)c(-c2cccs2)[n+]([O-])c2ccccc21 | active: 0.059 |
| COc1cccc(C(=O)CSc2nnc(-c3cc(OC)cc(OC)c3)o2)c1 | inconclusive: 0.0688 |
| O=C(Cc1ccc(-n2cccc2)cc1)NCc1cccs1 | inconclusive: 0.0956 |
| CNC(=O)c1nnsc1S(=O)(=O)c1ccc(Cl)cc1 | active: 0.0533 |
| CC(=O)Nc1ccc(OCCOc2ccc(/C=C3/C(=N)N4C=CSC4=NC3=O)cc2)cc1 | inconclusive: 0.0978 |
| Cc1cc(C(=O)COc2ccc(F)cc2Br)c(C)n1C | inconclusive: 0.0693 |
| N#C/C(=C(/O)C(Cl)(Cl)Cl)c1nc2ccccc2[nH]1 | active: 0.045 |
| O=C(CSc1nnc(Cc2cccs2)n1Cc1ccco1)Nc1ccc(Br)cc1 | inconclusive: 0.0698 |
| COCc1cc(C)nc(SCC(=O)c2ccc(O)c(O)c2)c1C#N | inactive: 0.0774 |
| Cn1c(=O)c2cc3ccccc3nc2n(C)c1=O | inconclusive: 0.0693 |
| CC(C)(C)CC(C)(C)NCC(O)COc1c(F)cc(Br)cc1F (stereo not given) | active: 0.0536 |
| COc1cc2c(cc1OC)CN(CCC(=O)c1ccc(Br)cc1)CC2 | inconclusive: 0.0693 |
| COc1ccc2cc(Br)ccc2c1CC(=O)NC1CC(C)(C)NC(C)(C)C1 | active: 0.0669 |
| COC(=O)CCC(=O)Nc1sc2c(c1C#N)CCCC2 | inactive: 0.0892 |

| Compound | normalized thallium flux (F/F0 slope) |
| --- | --- |
| COc1cccc(-n2c(SCc3ccccn3)nc3c(c2=O)SCC3)c1 | inactive: 0.0849 |
| Cc1ccc(/C=C(\C#N)C(=O)NCCN2CCOCC2)cc1 | active: 0.0597 |
| CN=c1scc(C)n1/N=C/c1ccc(O)cc1O | inconclusive: 0.0711 |
| N#Cc1cccc(C(c2nnnn2CCc2ccccc2)N2CCN(C3CCCCC3)CC2)c1 (stereo not given) | active: 0.0576 |
| CCCOc1cc(N(CC)CC)ccc1/C=C(/C#N)c1nc2ccc(C)cc2[nH]1 | active: 0.039 |
| O=C(NC(Nc1nc2ccc([N+](=O)[O-])cc2s1)(C(F)(F)F)C(F)(F)F)c1ccccc1Cl | inconclusive: 0.0731 |
| O=C(CS(=O)(=O)Cc1ccccc1)N1CCN(c2cccc(C(F)(F)F)c2)CC1 | inconclusive: 0.0681 |
| O=C(COc1ccc(Cl)cc1[N+](=O)[O-])N1CCCCCC1 | inconclusive: 0.0691 |
| COc1ccc(/C=N/NC(=O)c2cccnc2)cc1CSc1nc2ccccc2s1 | inactive: 0.0826 |
| CC(/C=N/NC(=O)c1cc(-c2cccnc2)nc2c1c(C)nn2-c1ccccc1)=C\c1ccccc1 | inconclusive: 0.0685 |
| CCn1c(C(=O)N2CCC(C(=O)NCCCSC3CCCCC3)CC2)cc2sccc21 | inconclusive: 0.0674 |
| CCOc1ccccc1C(=O)NCC(=O)OCC(=O)NCCc1ccc(S(N)(=O)=O)cc1 | inactive: 0.0848 |
| CC(C)N(CCn1c(=S)[nH]c2ccccc2c1=O)C(C)C | active: 0.0678 |
| Cc1ccc(OCC(=O)Nc2cccc(-c3nnc(-c4ccccc4)o3)c2)cc1 | inactive: 0.0793 |
| O=C(Nc1nnc(-c2ccccc2F)s1)C1CCN(S(=O)(=O)c2ccc(Cl)cc2)CC1 | inactive: 0.0783 |
| C=CCSc1nnc(C)c(/C=C/Nc2ccc(Cl)cc2)n1 | active: 0.0461 |
| COc1ccc(Cc2nn3c(-c4cc(OC)c(OC)c(OC)c4)nnc3s2)cc1 | inconclusive: 0.0689 |
| CCOC(=O)C1=C(C)NC(SC)=C(C#N)C1CC(C)C (stereo not given) | inactive: 0.0798 |
| C=C1C(=O)C=C2CN(C(=O)c3ccccc3)[C@@](Cc3ccc(F)cc3)(C(=O)OC)[C@@H]12 | active: 0.0496 |
| CCOc1ccc(C2C(C(=O)Nc3cc(C)on3)c3ccccc3C(=O)N2CCN2CCOCC2)cc1 (stereo not given) | inactive: 0.0803 |
| CCOC(=O)C(NC(C)=O)C(=O)Nc1ccc(C(C)(C)C)cc1 (stereo not given) | inactive: 0.0823 |
